According to article PMC6195382:
No constants are given. Whether binding was seen depends on the method and setting. Some results given as binding are weak or reduced against the parent protein; the word gives no strength. For part of these data: Where a sequence is shown, tags or fusion partners need not be part of it.

What was measured:
mCEACAM1-His (mouse) [1] = target: T1, mCEACAM1-His (mouse) (UniProt P31809); assay: ELISA; protein ELISA with Fab of CC1 (data not shown); both purified
T1 sequence: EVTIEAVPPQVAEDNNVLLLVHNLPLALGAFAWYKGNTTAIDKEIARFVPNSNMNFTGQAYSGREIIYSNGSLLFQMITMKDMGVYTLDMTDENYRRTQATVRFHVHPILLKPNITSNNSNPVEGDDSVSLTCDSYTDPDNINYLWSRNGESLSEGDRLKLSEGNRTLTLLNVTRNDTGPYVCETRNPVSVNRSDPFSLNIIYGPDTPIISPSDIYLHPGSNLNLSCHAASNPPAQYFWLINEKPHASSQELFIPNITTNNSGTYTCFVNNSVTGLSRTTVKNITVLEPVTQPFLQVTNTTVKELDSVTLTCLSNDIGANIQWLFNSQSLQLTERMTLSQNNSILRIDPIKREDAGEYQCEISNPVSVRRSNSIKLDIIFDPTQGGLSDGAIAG

[2] = target: T2, mouse CEACAM1 on transfected CHO cells (mouse) (UniProt P31809); assay: flow cytometry on cells; soluble mCEACAM1 binding to mCEACAM1 transfected cells in the presence of CC1 antibody (data not shown); only the binder purified
T2 sequence: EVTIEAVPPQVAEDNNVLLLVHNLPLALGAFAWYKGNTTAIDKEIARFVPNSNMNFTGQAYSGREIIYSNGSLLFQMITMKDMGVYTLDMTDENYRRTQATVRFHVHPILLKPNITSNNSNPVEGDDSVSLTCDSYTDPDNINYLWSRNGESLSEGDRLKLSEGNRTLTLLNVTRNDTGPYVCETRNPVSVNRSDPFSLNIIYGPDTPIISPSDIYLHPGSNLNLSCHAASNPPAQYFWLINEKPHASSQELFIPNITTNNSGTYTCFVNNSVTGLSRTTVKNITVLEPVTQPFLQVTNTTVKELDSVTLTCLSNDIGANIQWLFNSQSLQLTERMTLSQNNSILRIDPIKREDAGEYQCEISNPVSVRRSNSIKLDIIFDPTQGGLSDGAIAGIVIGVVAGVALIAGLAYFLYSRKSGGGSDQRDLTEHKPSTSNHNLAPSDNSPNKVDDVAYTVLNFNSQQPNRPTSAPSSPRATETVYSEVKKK

[3] = target: T2, mouse CEACAM1 on transfected CHO cells (mouse); assay: ELISA; cELISA with CC1 IgG or Fab of CC1: mCEACAM1-CHO cells, serially diluted antibody or isotype control, then mCEACAM1-hFc at 10 ug/ml; detected with HRP goat anti-human IgG; only the binder purified
mCEACAM1-His (mouse) [4] = target: T1, mCEACAM1-His (mouse); assay: ELISA; protein ELISA with CC1 IgG: coated mCEACAM-His, serially diluted CC1 (from 20 ug/ml) or isotype control 30 min, then mCEACAM-hFc at 1 ug/ml 30 min; detected with HRP goat anti-human IgG; both purified
mCEACAM1-His (mouse) [5] = target: T1, mCEACAM1-His (mouse); assay: ELISA; protein ELISA: plates coated with mCEACAM-His 1 ug/ml in PBS at 4 C overnight, blocked; serially diluted mCEACAM1-hFc added 30 min at room temperature; detected with HRP goat anti-human IgG; both purified
[6] = target: T2, mouse CEACAM1 on transfected CHO cells (mouse); assay: ELISA; cell ELISA (cELISA): mCEACAM1 or mTIM-3 transfected CHO cells seeded on plates; serially diluted mCEACAM-hFc in DMEM with 10% FBS, 30 min at room temperature; detected with HRP goat anti-human IgG; only the binder purified

Measured: binding

B1: mCEACAM1-hFc (Fc fusion, UniProt P31809 35-428)
chain: T1 sequence
binds: all assays above
